Measurements published in patent publication US6469168B1, “Piperazinylalkylthiopyrimidine derivatives, pharmaceutical compositions containing the same, and a process for the preparation of the active substance” (EGIS Gyógyszergyár Rt., priority 1999, dated 2002).

System: male NMRI mice
Assay: Determination of the spontaneous motor activity
Conditions: p.o., 60 minutes prior to the test, dose producing 50% of inhibition of motor activity
Procedure: 2. Determination of the Spontaneous Motor Activity
For the experiments, male NMRI mice weighing 20 to 25 g were used. Each treatment group consisted of 10 mice. The substance to be examined or the vehicle (i.e. a 0.4% solution of methylcellulose) was administered to the animals in a volume of 20 ml/kg as a suspension per os 60 minutes prior to the test. […] In case of anxiolytics, the value of the anxiolytic effect depends on the presence or absence of the sedative action (the latter is […]). For the experiments, an apparatus “digital motimeter” having 10 measuring places was used. The motion of the animals was indicated by the interruption of three parallel beams of infrared light at each measuring place, and the interruptions were recorded by the apparatus. The activity of one animal was determined at each measuring place. […] Int.

CN1C(=O)CN=C(c2ccccc2)c2cc(Cl)ccc21 [diazepam, 7-chloro-1,3-dihydro-1-methyl-5-phenyl-2H-1,4-benzodiazepine-2-one, reference compound]
ID50: 6.9 mg/kg
